PubChem BioAssay AID743454 | Peter MacCallum Cancer Centre | 2014
The whole screen tested about 18,000 reagents; this is a random part of them. 450 of all reagents (2.5%) were called active. 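Single biological run; no consistent viability z cut-off exists, so the class columns, not z-scores, define the calls.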

- Screen: 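Search for knock-downs that restore vorinostat killing in resistant colon cancer cells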 (primary screen)
- Cells: human HCT116-VR colon cancer cells, selected for vorinostat resistance
- Knock-down reagent: siRNA pool against human genes, 40 nM siRNA pool
- Timing: vorinostat for 24 h, read-out about 72 h after transfection
- Conditions: vorinostat at 2.5 µM final
- Read-out: 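Two measures, CellTiter-Fluor viability and luminescent caspase 3/7 activity, each as fold change against same-plate mock wells, mean of duplicates, then screen-wide robust z-score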
- Scale: viability robust z-score: higher = more viable cells than screen typical; caspase robust z-score: higher = more caspase 3/7 activity than screen typical
- Hit rule: 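Hits are knock-downs in viability class RV1/RV2 or caspase class CA1/CA2, excluding ones that killed cells in the no-drug cell-count arm; hits then retested with single siRNAs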

no.	gene	viability hit class	caspase hit class	viability robust z-score	caspase robust z-score	Outcome
1	SMIM11	no change	no change	-0.57	-0.72	inactive
2	CYFIP2	no change	no change	-0.82	0.36	inactive
3	TACC3	no change	no change	-1.12	2.14	inactive
4	GRHL2	no change	no change	0.1	0.86	inactive
5	RABAC1	no change	no change	0.18	-0.5	inactive
6	PRR15L	no change	no change	-0.14	2.44	inactive
7	PTRH1	no change	no change	-0.54	-0.12	inactive
8	CILK1	no change	no change	-0.78	0.98	inactive
9	COQ3	no change	no change	-2.48	0.18	inactive
10	ZCCHC10	no change	no change	-1.29	1.25	inactive
11	RACGAP1	no change	no change	-0.38	1.92	inactive
12	HAX1	no change	no change	-0.02	2.2	inactive
13	NDUFS8	no change	no change	0.18	-0.02	inactive
14	SUMF2	no change	no change	1.03	0.16	inactive
15	PCSK1N	no change	no change	0.72	-0.2	inactive
16	THUMPD3	no change	no change	-0.04	-1	inactive
17	NEUROG1	no change	no change	0.08	0.08	inactive
18	FAH	no change	no change	0.34	0.25	inactive
19	NGDN	no change	no change	-1.02	-0.56	inactive
20	TMBIM6	no change	no change	0.92	-0.21	inactive
21	CALML3	no change	no change	-0.72	3.27	inactive
22	LAMC1	no change	no change	0.88	-0.58	inactive
23	H1-6	no change	no change	0.78	-0.33	inactive
24	NPHP3	no change	no change	-0.04	1.23	inactive
25	NFE2L3	no change	no change	-0.36	-0.77	inactive
26	AIF1	no change	no change	0.38	0.82	inactive
27	PSIP1	no change	no change	0.5	1.6	inactive
28	YAP1	no change	no change	-0.82	1.08	inactive
29	SNTB2	no change	no change	-0.14	0.37	inactive
30	TBP	no change	no change	-0.24	0.03	inactive
31	C8G	no change	no change	0.2	-0.34	inactive
32	FZD4	no change	no change	1.07	-0.18	inactive
33	GBF1	no change	no change	-1.6	1.11	inactive
34	FAM199X	no change	no change	0.3	-0.44	inactive
35	ZNF554	no change	no change	2.08	0.02	inactive
36	KIF27	no change	no change	0.08	-0.97	inactive
37	TBX22	no change	no change	-2.04	0.15	inactive
38	SYPL1	no change	no change	-0.05	-0.81	inactive
39	ZFHX3	no change	no change	1.88	-0.29	inactive
40	MAST2	no change	no change	-0.44	-0.11	inactive
41	CPNE4	no change	no change	-0.86	-0.54	inactive
42	CARMIL1	no change	no change	-0.32	1.01	inactive
43	L3MBTL3	no change	no change	0.56	-0.26	inactive
44	H2AB1	no change	no change	1.32	-0.18	inactive
45	ZNF829	no change	no change	0.48	-1	inactive
46	BOD1L1	no change	no change	0.71	0.52	inactive
47	GPR85	no change	no change	0.34	0.43	inactive
48	ANGPTL7	no change	no change	-1.04	1.16	inactive
49	PDE6G	no change	CA1 (caspase activation)	0.63	5.56	active
50	EMP1	no change	no change	1.18	0.02	inactive
51	VAMP5	no change	no change	0.11	0.66	inactive
52	CIAO1	no change	no change	0.44	-0.36	inactive
53	HIGD2A	no change	no change	-3.64	0.09	inactive
54	CDKN2AIP	no change	no change	0.43	-0.07	inactive
55	MEGF11	no change	no change	0.6	1.02	inactive
56	SATB2	no change	no change	-0.4	0.57	inactive
57	CHRDL1	no change	no change	-1.95	-1.23	inactive
